Values quoted from earlier work in US20120122948A1, “3-ALKYL-5-FLUOROINDOLE DERIVATIVES AS MYELOPEROXIDASE INHIBITORS” (UNIVERSITE LIBRE DE BEUXELLES, priority 2009, published 2012).
Some results were stated once for a whole list of compounds, not compound by compound.

Target: T1, human myeloperoxidase (Homo sapiens, UniProt P05164)
T1 sequence (P05164 49-745): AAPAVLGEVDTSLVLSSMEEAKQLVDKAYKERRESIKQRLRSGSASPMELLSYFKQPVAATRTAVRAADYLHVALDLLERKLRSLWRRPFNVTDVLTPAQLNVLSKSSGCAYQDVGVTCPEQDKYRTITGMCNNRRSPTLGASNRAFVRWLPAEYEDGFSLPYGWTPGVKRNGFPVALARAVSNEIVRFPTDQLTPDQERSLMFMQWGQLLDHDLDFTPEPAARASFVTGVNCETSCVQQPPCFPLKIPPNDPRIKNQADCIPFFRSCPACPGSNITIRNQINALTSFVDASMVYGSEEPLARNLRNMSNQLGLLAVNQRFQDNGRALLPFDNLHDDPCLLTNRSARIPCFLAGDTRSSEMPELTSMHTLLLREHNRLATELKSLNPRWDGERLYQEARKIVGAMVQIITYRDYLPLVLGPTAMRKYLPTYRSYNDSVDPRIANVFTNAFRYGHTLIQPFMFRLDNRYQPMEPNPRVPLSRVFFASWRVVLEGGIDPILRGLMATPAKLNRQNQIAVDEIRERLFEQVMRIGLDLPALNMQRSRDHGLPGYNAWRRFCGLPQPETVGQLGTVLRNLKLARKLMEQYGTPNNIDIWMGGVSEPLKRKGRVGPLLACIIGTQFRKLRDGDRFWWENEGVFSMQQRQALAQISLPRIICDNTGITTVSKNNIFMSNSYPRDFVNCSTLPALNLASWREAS
Details: read-out: IC50, chlorinating activity of MPO; prior art, Jantschko et al. 2005; cited from earlier work

In the case of `NCCc1c[nH]c2ccc(Cl)cc12` [5-chlorotryptamine], the IC50 is listed as > 700 nM.
For `NCCc1c[nH]c2ccc(F)cc12` [Compound A, 5-fluorotryptamine, reference compound], the IC50 is given as > 700 nM.
